PMC8683389, “The monofunctional CO dehydrogenase CooS is essential for growth of Thermoanaerobacter kivui on carbon monoxide” (Extremophiles, 2021)
No constants are given. Whether binding was seen depends on the method and setting. Some results given as binding are weak or reduced against the parent protein; the word gives no strength. Where a sequence is shown, tags or fusion partners need not be part of it.

Assays:
[1] = target: T1, His-AcsA, His-tagged CO dehydrogenase subunit AcsA of the CODH/ACS complex of Thermoanaerobacter kivui (Thermoanaerobacter kivui); assay: co-purification (Ni2+-NTA affinity chromatography, then SEC), SDS-PAGE; His-tagged protein produced in T. kivui, crude extract on Ni2+-NTA resin, then Superdex 200; strictly anoxic, room temperature, buffers A and B (50 mM Tris/HCl, 150 mM NaCl, 20 mM MgSO4, 20% glycerol, pH 7.5); co-purified protein seen on a Coomassie-stained 12% SDS gel
T1 sequence: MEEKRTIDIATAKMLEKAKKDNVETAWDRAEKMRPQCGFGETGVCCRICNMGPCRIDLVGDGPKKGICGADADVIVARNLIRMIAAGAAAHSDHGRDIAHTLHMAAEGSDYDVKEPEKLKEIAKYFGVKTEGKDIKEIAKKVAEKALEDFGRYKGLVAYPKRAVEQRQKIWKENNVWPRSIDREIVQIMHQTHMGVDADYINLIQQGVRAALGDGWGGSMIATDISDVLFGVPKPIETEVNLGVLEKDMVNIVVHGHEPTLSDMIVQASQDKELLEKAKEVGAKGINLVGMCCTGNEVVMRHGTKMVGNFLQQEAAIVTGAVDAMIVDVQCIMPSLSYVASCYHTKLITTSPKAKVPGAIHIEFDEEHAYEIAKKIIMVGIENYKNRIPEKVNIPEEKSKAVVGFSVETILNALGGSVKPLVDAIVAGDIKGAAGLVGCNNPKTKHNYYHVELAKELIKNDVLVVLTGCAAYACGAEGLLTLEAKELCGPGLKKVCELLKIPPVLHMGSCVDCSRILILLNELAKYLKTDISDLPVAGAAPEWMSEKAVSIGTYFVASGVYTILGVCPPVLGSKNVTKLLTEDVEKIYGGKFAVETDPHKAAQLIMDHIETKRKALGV

[2] = target: His-AcsAB complex of Thermoanaerobacter kivui (Thermoanaerobacter kivui | Thermoanaerobacter kivui (endogenous in T. kivui)); assay: SEC; analytical size exclusion on a calibrated Superdex 200 column, buffer B, size standards 43-440 kDa; oligomeric state of the purified complex; both purified

B1: AcsB, acetyl-CoA synthase of the CO dehydrogenase/acetyl CoA synthase complex of Thermoanaerobacter kivui (enzyme, UniProt A0A097ATJ0 1-708)
chain: MNLVDIIFTGANQALEAAKATLTAAIEKKGEDAKVVFPDTAYSLPTIYAATGQKIGTLKELAGAAPIIESLISEERNLDTALKAGLATAVCAEVIEACKYATEEKPYTEPCIGFVPDPIIRSLGVPLVTGDIPGVAVVIGEAPSAEIAAKIIKNYQNKGLLTFLVGKVIDQAIEGNVKMGLELRVVPLGYDVTSVIHVVTVALRAALIFGGVQPGDLGSLLTYTKERVPAFVNALGPLSELVVAAGAGAIALGFPVITDQDVPEIPGALISQKDYDKIGATSLEARGIKIKITEIPIPVGFAAAFEGERIRKGDMFVEFGGGRTPAWEVVRTLDMSEIEDHKIEVIGPDIDTLGPEGGKMPLGILVDVAGKKMQQDFEPVLERRIHYFLNYMEGVMHLGQRDIIWVRIGKNAYQAGLRLHHFGEVLYAKMLDEFGSVVDKVQVTIITDPAKVEEMGKTIAKPRYQARDERLAGLSDESVDVFYSCLMCQSFAPAHVCIVTPERLGLCGAVSWLDAKATKEINPTGPCQPIEKGECLDPVKGIFESCNKAVEELSHGAIKEVTLYSLMENPMTSCGCFECICAIMPEANGVIIVNREYGGMTPLGMTFGELASTTGGGNQTPGFMGHGRQYISSKKFIAAEGGLKRVVWMPKELKDAVRDKINETAKELFGIDNFADMIADETVGTAPDAVVEFLNNVGHPALTMDPLL
- binding [1]: binds

B2: His-AcsAB complex of Thermoanaerobacter kivui (complex, UniProt A0A097ATM9 1-618; A0A097ATJ0 1-708)
chain 1: MEEKRTIDIATAKMLEKAKKDNVETAWDRAEKMRPQCGFGETGVCCRICNMGPCRIDLVGDGPKKGICGADADVIVARNLIRMIAAGAAAHSDHGRDIAHTLHMAAEGSDYDVKEPEKLKEIAKYFGVKTEGKDIKEIAKKVAEKALEDFGRYKGLVAYPKRAVEQRQKIWKENNVWPRSIDREIVQIMHQTHMGVDADYINLIQQGVRAALGDGWGGSMIATDISDVLFGVPKPIETEVNLGVLEKDMVNIVVHGHEPTLSDMIVQASQDKELLEKAKEVGAKGINLVGMCCTGNEVVMRHGTKMVGNFLQQEAAIVTGAVDAMIVDVQCIMPSLSYVASCYHTKLITTSPKAKVPGAIHIEFDEEHAYEIAKKIIMVGIENYKNRIPEKVNIPEEKSKAVVGFSVETILNALGGSVKPLVDAIVAGDIKGAAGLVGCNNPKTKHNYYHVELAKELIKNDVLVVLTGCAAYACGAEGLLTLEAKELCGPGLKKVCELLKIPPVLHMGSCVDCSRILILLNELAKYLKTDISDLPVAGAAPEWMSEKAVSIGTYFVASGVYTILGVCPPVLGSKNVTKLLTEDVEKIYGGKFAVETDPHKAAQLIMDHIETKRKALGV
chain 2: MNLVDIIFTGANQALEAAKATLTAAIEKKGEDAKVVFPDTAYSLPTIYAATGQKIGTLKELAGAAPIIESLISEERNLDTALKAGLATAVCAEVIEACKYATEEKPYTEPCIGFVPDPIIRSLGVPLVTGDIPGVAVVIGEAPSAEIAAKIIKNYQNKGLLTFLVGKVIDQAIEGNVKMGLELRVVPLGYDVTSVIHVVTVALRAALIFGGVQPGDLGSLLTYTKERVPAFVNALGPLSELVVAAGAGAIALGFPVITDQDVPEIPGALISQKDYDKIGATSLEARGIKIKITEIPIPVGFAAAFEGERIRKGDMFVEFGGGRTPAWEVVRTLDMSEIEDHKIEVIGPDIDTLGPEGGKMPLGILVDVAGKKMQQDFEPVLERRIHYFLNYMEGVMHLGQRDIIWVRIGKNAYQAGLRLHHFGEVLYAKMLDEFGSVVDKVQVTIITDPAKVEEMGKTIAKPRYQARDERLAGLSDESVDVFYSCLMCQSFAPAHVCIVTPERLGLCGAVSWLDAKATKEINPTGPCQPIEKGECLDPVKGIFESCNKAVEELSHGAIKEVTLYSLMENPMTSCGCFECICAIMPEANGVIIVNREYGGMTPLGMTFGELASTTGGGNQTPGFMGHGRQYISSKKFIAAEGGLKRVVWMPKELKDAVRDKINETAKELFGIDNFADMIADETVGTAPDAVVEFLNNVGHPALTMDPLL
- binding [2]: no binding
